The values that follow come from PubChem BioAssay AID2685 (National Center for Advancing Translational Sciences (NCATS), 2010).

A short description of the test: qHTS Assay for Lipid Storage Modulators in Drosophila S3 Cells.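 For cell number change: cells counted by Cell Tracker Red CMTPX staining in the red channel.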 The conditions noted are these: BODIPY lipid droplet fluorescence, 18-24 h; for cell number change: measured here: cell count max response, cells fed with added oleic acid. The essentials: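 Laser-scanning cytometry quantifies lipid droplet accumulation (500–530 nm total intensity; droplet/cell object ratio) in oleic acid-fed (400 uM added) Drosophila S3 cells treated with a concentration series. 20 uM Triacsin C defined 100% inhibition.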
In general terms: In qHTS, concentration-response curves come from the screen itself.

[1] abbreviates: measured here: cell number channel AC50, cells fed with added oleic acid.
Setting [2] is: measured here: lipid fluorescence (Fed channel) AC50, cells fed with added oleic acid.

SMILES strings stand for the structures. This is one part of the list. The main result of the screen is listed elsewhere. These columns were measured beside it and carry no call. Most of these compounds were active or inconclusive in the main read-out, so they are no random draw. Potencies come from curve fits of mixed quality, noted in brackets.

By AC50 is commonly meant the concentration at which the activity in the assay is half-maximal. A high value points to weaker potency.

For the molecule `COC(=O)c1ccccc1NC(=O)Cn1c(CCC(=O)O)ccc1-c1cccs1`, the cell number change amounted to 20.4%. The AC50 under setting [1] is 1840 nM [rising, full curve, poor fit]. Further, the AC50 under setting [2] is 4110 nM [rising, partial curve].
Consider `CCc1ccccc1NC(=O)CN(C)S(=O)(=O)c1ccc2c(c1)c(=O)n(C)c(=O)n2C`, for which the cell number change came to 40%. Also, the half-maximal activity concentration (AC50) under setting [1] was 29100 nM [rising, single point]. Besides, the AC50 under setting [2] was 29100 nM [rising, partial curve, poor fit].
`O=C(Oc1ccc(-c2cnc3ccccc3n2)cc1)c1cccc([N+](=O)[O-])c1`: the cell number change was 13.5%. Under setting [1], the AC50 is 2590 nM [rising, single point]. For the same molecule, the AC50 under setting [2] is 29100 nM [falling, single point].
As for `CCn1cc(CN2CCC(n3nccc3NC(=O)c3ccccc3C)CC2)cn1`, the cell number change is -3.47%.
Regarding `CC(NC(=O)c1ccccc1)c1nnc(SCc2nc3ccccc3c(=O)[nH]2)n1C` (stereo not drawn), the cell number change was determined as 7.06%. For the same molecule, the AC50 under setting [2] was 6510 nM [falling, single point].
As for `O=Cc1ccc(OCCOc2ccc([N+](=O)[O-])cc2)cc1`, the cell number change was -14.6%. In addition, the half-maximal activity concentration (AC50) under setting [2] is 1840 nM [rising, partial curve, poor fit].
Regarding `N#CCCN(/N=C/c1cccnc1)C1=NS(=O)(=O)c2ccccc21`, the half-maximal activity concentration (AC50) by setting is: under setting [1], 580 nM [rising, partial curve]; under setting [2], 580 nM [rising, partial curve].
Turning to `COc1ccc(NC(=S)NCCCN2CCN(C3CCCCC3)CC2)cc1`, the cell number change came out at 7.95%. Further, the AC50 under setting [2] was 32600 nM [rising, single point].
With `Cc1ccc(CNS(=O)(=O)c2c(C(=O)N3CCCCC3)c(C)n(C)c2C)o1`, the cell number change is 22%. The AC50 under setting [1] is 2060 nM [rising, partial curve, poor fit].
Turning to `CCOc1ccc(NC(=O)COC(=O)Cc2ccc(S(=O)(=O)N3CCOCC3)s2)cc1`, the cell number change was 83.1%. Moreover, the AC50 under setting [1] was 29100 nM [rising, single point].
With `COc1ccc2sc(-c3ccc(N(C)C)cc3)c(C#CCO)c2c1`, the cell number change was -53%. The AC50 under setting [1] is 5800 nM [falling, single point].
With `CCCc1c(C(=O)OCC)[nH]c2c1C(=O)CCC2`, the cell number change came to 14.3%.
With `O=C(CSc1nc(=O)n(CCCN2CCOCC2)c2c1CCC2)Nc1ccc(F)cc1F`, under setting [1], the half-maximal activity concentration (AC50) is 461 nM [rising, single point].
On to `COc1ccc(N2C(=NC(=O)C3CCCCC3)SC3CS(=O)(=O)CC32)cc1Cl` (stereo not drawn), for which the cell number change was -0.407%. The AC50 under setting [2] is 6510 nM [falling, single point].
As for `O=C(CCl)NN1C(=O)NC(c2ccccc2)(c2ccccc2)C1=O`, the cell number change came to 24.4%.
For `COc1ccc(NC(=O)CNC(=O)c2sc3ccccc3c2Cl)c(OC)c1`, the cell number change is -53%. Also, under setting [1], the AC50 was 29100 nM [falling, single point]. Also, under setting [2], the AC50 is 6510 nM [falling, partial curve].
As for `O=C(Cn1ccc([N+](=O)[O-])n1)N1CCCCC1`, the cell number change was -36.5%.
As to `CCc1nnc(NC(=O)c2ccc(S(=O)(=O)N3CCCC(C)C3)cc2)o1` (stereo not drawn), the cell number change came to 1.51%. The half-maximal activity concentration (AC50) under setting [2] was 2310 nM [falling, partial curve, poor fit].
Regarding `COC(=O)C1(Cc2cc(-c3ccc(OC)cc3OC)no2)CCN(C(=O)OC(C)(C)C)CC1`, the cell number change amounted to 11.3%.
Turning to `CCOc1ccccc1C(=O)NCC(=O)Nc1ncccc1C`, the cell number change amounted to 43.3%. Besides, under setting [1], the AC50 is 1030 nM [rising, full curve]. Moreover, the concentration at half-maximal activity (AC50) under setting [2] is 1300 nM [rising, full curve].
For `C=C1CCN([C@H](C(=O)NCc2ccc(Cl)cc2)C(C)C)S(=O)(=O)c2ccccc21`, the cell number change is 12.4%. In addition, under setting [2], the half-maximal activity concentration (AC50) was 25900 nM [rising, single point].
`CC(C)(C)c1nnc(N/N=C/c2cc(Br)ccc2O)n(N)c1=O`: the cell number change was -34.8%. Also, the AC50 under setting [1] was 18400 nM [falling, single point]. The AC50 under setting [2] was 16400 nM [falling, single point].
On to `CC1COc2ccccc2N1S(=O)(=O)c1ccc(Cl)cc1` (stereo not drawn), for which the cell number change was -12.5%. Moreover, under setting [2], the AC50 is 14600 nM [rising, single point].
As for `Cc1c(Cl)cccc1NC(=S)NC1CC1`, the cell number change is -13.9%. Moreover, the AC50 under setting [2] is 820 nM [falling, full curve].
Turning to `CCCCN(C(=O)c1c(C)noc1C)c1c(N)n(CCCC)c(=O)[nH]c1=O`, the cell number change is 19%.
Still for that read-out and setting: under `O=C(Cc1ccc([N+](=O)[O-])cc1)NCc1cccnc1` stands 4.53%.
Take `C=CCNC(=O)c1cc2c(=O)c3ccccc3oc2nc1C`: the cell number change was -41%. In addition, under setting [1], the AC50 was 29100 nM [falling, single point]. The AC50 under setting [2] was 18400 nM [falling, partial curve].
In the case of `CCC(=O)Nc1ccc(NC(=O)c2cc3ccccc3o2)cc1`, the cell number change was -25.8%.
In the case of `CC(c1ccccc1)C(NC(=O)OCC1c2ccccc2-c2ccccc21)C(=O)O` (stereo not drawn), the cell number change turned out to be 33.9%. Under setting [1], the AC50 was 461 nM [rising, partial curve]. Besides, the AC50 under setting [2] is 29100 nM [rising, single point].
As for `CCc1ccc(OCC2c3cc(OC)c(OC)cc3CCN2C(C)=O)cc1` (stereo not drawn), the cell number change is -15.9%. Also, under setting [2], the AC50 is 291 nM [falling, partial curve, poor fit].
Regarding `Cc1ccnc(NC(=O)CCC(=O)N(CC(=O)NC2CCCCC2)c2ccc3c(c2)OCO3)c1`, the cell number change is -3.17%.
With `COCCCNC(=O)c1cn(C)c(=O)c2cc(OC)c(OC)cc12`, the cell number change was 22%. Besides, the AC50 under setting [2] was 29100 nM [falling, single point].
Take `COc1ccc(-c2cc(C(F)F)n3ncc(C(=O)N4CCCc5ccccc54)c3n2)cc1`: the cell number change was -24.3%. Moreover, under setting [2], the AC50 is 146 nM [falling, full curve, poor fit].
As for `O=C1C=C(N2CCCCCC2)C(=O)N1c1ccc(Cl)cc1`, the cell number change stood at 23%. Moreover, the AC50 under setting [2] was 13 nM [rising, full curve, poor fit].
Regarding `CC1CCN(S(=O)(=O)c2ccc(N=NC3=C(O)CC(C)(C)CC3=O)cc2)CC1`, the cell number change was -3.21%. Further, the AC50 under setting [2] was 6510 nM [rising, single point].
With `CCCn1c(SCC(=O)O)nc2ccccc21`, the cell number change turned out to be 126%. Besides, the AC50 under setting [1] was 18400 nM [rising, single point]. The AC50 under setting [2] was 259 nM [falling, partial curve, poor fit].
As for `CCOC(=O)N1CCC(=NNc2ccc(S(N)(=O)=O)cc2[N+](=O)[O-])CC1`, the cell number change was -31.4%. Further, the AC50 under setting [1] is 10300 nM [falling, partial curve, poor fit]. For the same molecule, the AC50 under setting [2] is 2060 nM [falling, partial curve].
For the molecule `COC(=O)c1ccc(NC(=O)C(C)Oc2ccccc2)cc1` (stereo not drawn), the cell number change turned out to be 42.8%. Also, the AC50 under setting [2] was 580 nM [falling, single point].
For the molecule `Clc1ccc(CCNc2nc3ccccc3n3nnnc23)cc1`, the cell number change came to 4.88%. Besides, the half-maximal activity concentration (AC50) under setting [2] was 920 nM [falling, full curve, poor fit].
On to `O=C(CSc1nnc(Nc2ccccc2F)s1)NC1CC1`, for which the cell number change came out at 8.78%. Also, the concentration at half-maximal activity (AC50) under setting [2] was 116 nM [falling, full curve, poor fit].
With `CCCOc1ccc(-c2csc(NC(=O)CN3C(=O)CCC3=O)n2)cc1`, the cell number change is -24.5%. Further, the AC50 under setting [2] is 2060 nM [falling, full curve].
`NS(=O)(=O)c1ccc(CNC(=S)NCc2ccc(Cl)cc2)cc1`: the cell number change was -20.8%. The half-maximal activity concentration (AC50) under setting [2] was 164 nM [falling, full curve, poor fit].
Consider `Cc1c(OCc2ccc(C(=O)O)o2)ccc2c3c(c(=O)oc12)CCC3`, for which the cell number change is 1.24%. For the same molecule, the AC50 under setting [2] is 6510 nM [rising, single point].
`Cc1ccc(S(=O)(=O)N(C)C)cc1NC(=O)CN1C(=O)NC(Cc2c[nH]c3ccccc23)C1=O` (stereo not drawn): the cell number change is -44.9%. Moreover, the AC50 under setting [1] is 29100 nM [falling, single point].
Consider `O=C(COC(=O)C1CCN(S(=O)(=O)c2cccc3cccnc23)CC1)c1ccccc1`, for which the cell number change is -11.7%. Further, the AC50 under setting [1] is 3260 nM [rising, single point]. The AC50 under setting [2] is 2310 nM [falling, partial curve].
For the molecule `NC(=O)c1ccsc1NC(=O)COC(=O)CNC(=O)c1ccc(F)cc1`, the cell number change came out at 16.8%. Moreover, the AC50 under setting [1] is 29.1 nM [rising, full curve, poor fit]. In addition, the AC50 under setting [2] is 58 nM [rising, full curve, poor fit].
As to `CCOC(=O)c1sc(NC(=O)CSc2nc(C)cc(C)c2C#N)c(C#N)c1C`, the cell number change is -15.8%. The AC50 under setting [1] is 116 nM [falling, full curve, poor fit].
With `CN1C(=O)c2ccc(C(=O)NCc3ccc4c(c3)OCO4)cc2C1=O`, the cell number change was 35.8%. Also, the concentration at half-maximal activity (AC50) under setting [1] was 20600 nM [rising, single point]. Also, the AC50 under setting [2] is 18400 nM [rising, single point].
For the molecule `CN(C)S(=O)(=O)c1cccc(NC(=O)CC23CC4CC(CC(C4)C2)C3)c1`, the cell number change was -28.1%.
As for `CCCC(=O)Nc1nc2c(c(=O)[nH]1)CCCC2`, the cell number change is -7.24%. In addition, the half-maximal activity concentration (AC50) under setting [1] was 1300 nM [falling, partial curve, poor fit]. For the same molecule, the AC50 under setting [2] is 3260 nM [falling, full curve, poor fit].
For `COc1ccc2nc(N3CCN(C(=O)C4COc5ccccc5O4)CC3)sc2c1` (stereo not drawn), the cell number change was 61.8%. Also, the AC50 under setting [1] was 29100 nM [rising, single point].
Turning to `CCSc1nc(N)c2c3c(sc2n1)CCC3`, the cell number change was -6.39%. The AC50 under setting [2] is 1460 nM [rising, full curve, poor fit].
Consider `CCCCC[C@H]1CN(C2CCCCC2)C(=O)[C@@H]1CC(=O)NCc1ccccc1`, for which the AC50 under setting [2] was 18400 nM [falling, partial curve, poor fit].
For the molecule `COCCN=c1scc(-c2cccs2)n1/N=C(\C)c1ccco1`, the cell number change is 1.78%.
Consider `O=C(CCCN1C(=O)NC2(CCCC2)C1=O)Nc1ccc(F)cc1`, for which the cell number change was -33.4%. The AC50 under setting [1] was 2590 nM [falling, full curve]. In addition, the half-maximal activity concentration (AC50) under setting [2] is 9200 nM [falling, partial curve].
In the case of `COc1cc(/C=N/NC(=O)c2ccccc2NS(=O)(=O)c2cccs2)ccc1O`, the cell number change worked out at 5.78%. Besides, under setting [2], the AC50 is 920 nM [rising, partial curve].
As for `COC(=O)CN1C(=O)N(c2ccccc2)C(N(O)C(=O)Nc2ccccc2)C1(C)C` (stereo not drawn), the cell number change was -5.02%.
For `Cc1ccc2nc(-c3ccccc3)nc(SC(C)C(=O)NCc3cccs3)c2c1` (stereo not drawn), the cell number change was -30.2%. For the same molecule, the AC50 under setting [1] is 731 nM [falling, full curve]. Besides, the AC50 under setting [2] is 731 nM [falling, full curve].
